# Data as given in PMC12670160, “A drug-repurposing screen of FDA- and EMA-approved drugs identifies two NF-κB inhibitors active against eumycetoma” (Journal of Antimicrobial Chemotherapy, 2025).
# Counter-ions that a name gives are not always drawn. Among all 5,300 compounds or so, about 130 (2.5%) showed an effect of 50% or more. The list shows a part of the results.
# Test system: M. mycetomatis strain mm55
# Conditions: primary screen, metabolic activity vs growth control; 96 h, 2 µM; inhibitor
row,Structure (SMILES),% viability [%]
1,"O=C(CCc1ccc(O)cc1)c1c(O)cc(O)cc1O[C@@H]1O[C@H](CO)[C@@H](O)[C@H](O)[C@@H]1O [ONC0005253, phlorizin phloridzin]",154.3
2,"Cn1cc[nH]c1=S [ONC0000508, methimazole]",57.54
3,"Nc1ncnc2[nH]nc(Nc3ccc(F)cc3)c12 [ONC0001374, cgp57380]",128.9
4,"CCOC(=O)[C@H]1O[C@@H]1C(=O)N[C@@H](CC(C)C)C(=O)NCCC(C)C [ONC0000354, aloxistatin]",61.2
5,"CCCCCCCCCCCCCCCC[N+](C)(C)Cc1ccccc1 [ONC0003644, benzyldimethylhexadecylammonium chloride hydrate]",69.71
6,"CN1CC[C@@]2(C)c3cc(O)ccc3N(C)[C@@H]12 [ONC0002771, eseroline]",104.2
7,"COc1ccc2[nH]c(SCc3ncc(C)c(OC)c3C)nc2c1 [ONC0003373, omeprazole sulphide]",64.17
8,"Oc1c(CN2CCCC2)cc(COCc2ccccc2)c2cccnc12 [ONC0003065, uc112]",68.61
9,"CCOC(=O)C(=O)Nc1cccc(OC)c1C(N)=O [ONC0002163, wy16922]",57.24
10,"O=S1(=O)N[C@H]2CCCN2c2ccccc21 [ONC0003477, s 18986]",56.01
11,"O=C(O)CC(S)C(=O)O (centres unmarked) [ONC0003768, mercaptosuccinicacid]",114.3
12,"Oc1cc2c(cc1O)C(c1ccccc1)CNCC2 (centres unmarked) [ONC0000005, skf38393]",91.13
13,"CN(C)C/C=C/C(=O)Nc1cccc(C(=O)Nc2cccc(Nc3ncc(Cl)c(-c4c[nH]c5ccccc45)n3)c2)c1 [ONC0002061, thz2]",66.57
14,"Cn1c(=O)c2c(ncn2CC2OCCO2)n(C)c1=O [ONC0002817, doxofylline]",69.69
15,"O=C(NCCCN1CCOCC1)c1cnn2c(-c3ccccc3)cc(-c3ccccc3)nc12 [ONC0001702, reversan]",75.13
16,"O=C1N=C2NN=CC2C(=O)N1 (centres unmarked) [ONC0003735, oxypurinol]",101.2
17,"CC1(C)[C@H]2CC[C@]1(C)[C@@H](O)[C@H]2O [ONC0002184, cisexocamphanediol23]",85.44
18,"Cc1cc(=O)n(-c2ccccc2)[nH]1 [ONC0002190, ndemethylantipyrine]",84.29
19,"Cc1cc(/C=c2/sc3nc4ccccc4n3c2=O)c(C)n1-c1ccccc1 [ONC0005457, itx3]",65.92
20,"CC(=O)N(CC(O)CO)c1c(I)c(C(=O)NCC(O)CO)c(I)c(C(=O)NCC(O)CO)c1I (centres unmarked) [ONC0004075, iohexol]",97.24
21,"CN1CCN(CC(=O)N2c3ccccc3C(=O)Nc3cccnc32)CC1 [ONC0000621, pirenzepine hydrochloride]",101.3

# Arranged by molecular weight (low to high): part of the list above.
row,Structure (SMILES),% viability [%]
2,"Cn1cc[nH]c1=S [ONC0000508, methimazole]",57.54
11,"O=C(O)CC(S)C(=O)O (centres unmarked) [ONC0003768, mercaptosuccinicacid]",114.3
17,"CC1(C)[C@H]2CC[C@]1(C)[C@@H](O)[C@H]2O [ONC0002184, cisexocamphanediol23]",85.44
18,"Cc1cc(=O)n(-c2ccccc2)[nH]1 [ONC0002190, ndemethylantipyrine]",84.29
6,"CN1CC[C@@]2(C)c3cc(O)ccc3N(C)[C@@H]12 [ONC0002771, eseroline]",104.2
10,"O=S1(=O)N[C@H]2CCCN2c2ccccc21 [ONC0003477, s 18986]",56.01
3,"Nc1ncnc2[nH]nc(Nc3ccc(F)cc3)c12 [ONC0001374, cgp57380]",128.9
12,"Oc1cc2c(cc1O)C(c1ccccc1)CNCC2 (centres unmarked) [ONC0000005, skf38393]",91.13
14,"Cn1c(=O)c2c(ncn2CC2OCCO2)n(C)c1=O [ONC0002817, doxofylline]",69.69
7,"COc1ccc2[nH]c(SCc3ncc(C)c(OC)c3C)nc2c1 [ONC0003373, omeprazole sulphide]",64.17
4,"CCOC(=O)[C@H]1O[C@@H]1C(=O)N[C@@H](CC(C)C)C(=O)NCCC(C)C [ONC0000354, aloxistatin]",61.2
21,"CN1CCN(CC(=O)N2c3ccccc3C(=O)Nc3cccnc32)CC1 [ONC0000621, pirenzepine hydrochloride]",101.3
5,"CCCCCCCCCCCCCCCC[N+](C)(C)Cc1ccccc1 [ONC0003644, benzyldimethylhexadecylammonium chloride hydrate]",69.71
1,"O=C(CCc1ccc(O)cc1)c1c(O)cc(O)cc1O[C@@H]1O[C@H](CO)[C@@H](O)[C@H](O)[C@@H]1O [ONC0005253, phlorizin phloridzin]",154.3
13,"CN(C)C/C=C/C(=O)Nc1cccc(C(=O)Nc2cccc(Nc3ncc(Cl)c(-c4c[nH]c5ccccc45)n3)c2)c1 [ONC0002061, thz2]",66.57
20,"CC(=O)N(CC(O)CO)c1c(I)c(C(=O)NCC(O)CO)c(I)c(C(=O)NCC(O)CO)c1I (centres unmarked) [ONC0004075, iohexol]",97.24

# Additional results follow:

row,Structure (SMILES),% viability [%]
1,"CC(=O)N(CC(O)CO)c1c(I)c(C(=O)NCCO)c(I)c(C(=O)NCC(O)CO)c1I (centres unmarked) [ONC0002383, ioxilan]",101.2
2,"CC(C)NC[C@@H](C(=O)N1CCN(c2ncnc3c2[C@H](C)C[C@H]3O)CC1)c1ccc(Cl)cc1 [ONC0005076, ipatasertib gdc0068]",92.24
3,"Cc1ccc([C@@H]2O[C@H](CO)[C@@H](O)[C@H](O)[C@H]2O)cc1Cc1ccc(-c2ccc(F)cc2)s1 [ONC0005488, canagliflozin]",88.75
4,"Cc1cc2nc3c(=O)[nH]c(=O)nc-3n(C[C@H](O)[C@H](O)[C@H](O)COP(=O)(O)O)c2cc1C [ONC0003993, riboflavin 5phosphate sodium]",59.1
5,"Cc1cc(Nc2ncnc3ccc(NC4=NC(C)(C)CO4)cc23)ccc1Oc1ccn2ncnc2c1 [ONC0002477, tucatinib]",65.33
6,"COc1ccc(S(=O)(=O)N2CCC[C@H]2C(=O)Nc2cc(C)cc(C)c2)cc1 [ONC0003585, act462206]",65.92
7,"Cc1cccc(Oc2nc3c(C)cccn3c(=O)c2/C=C(\C#N)c2nc3ccccc3s2)c1 [ONC0001281, ccg63802]",68.65
8,"OCC(CO)N[C@H]1C[C@](O)(CO)[C@@H](O)[C@H](O)[C@H]1O [ONC0002570, voglibose]",62.37
9,"CCOC(CN1CCN(CC(C)C(=O)c2ccccc2)CC1)c1ccccc1 (centres unmarked) [ONC0005195, eprazinone 2hcl]",128
10,"CC(C)=CCC[C@](C)(O[C@@H]1O[C@H](CO)[C@@H](O)[C@H](O)[C@H]1O)[C@H]1CC[C@]2(C)[C@@H]1[C@H](O)C[C@@H]1[C@@]3(C)CC[C@H](O[C@@H]4O[C@H](CO)[C@@H](O)[C@H](O)[C@H]4O[C@@H]4O[C@H](CO)[C@@H](O)[C@H](O)[C@H]4O)C(C)(C)[C@@H]3CC[C@]12C [ONC0001990, ginsenoside rd]",112.3
11,"C=CCNc1ncnc2ccc(Br)cc12 [ONC0001746, smer28]",58.41
12,"OC(CCN1CCCCC1)(c1ccccc1)c1ccccc1 [ONC0002866, pridinol methanesulfonate]",103.1
13,"COc1cc(Nc2ncc3c(n2)-c2ccc(Cl)cc2C(c2c(F)cccc2OC)=NC3)ccc1C(=O)O [ONC0004637, mln8237 alisertib]",72.25
14,"Cc1c(Cl)c(C)[n+]([O-])c(Cl)c1-c1noc(-c2cc(O)c(O)c([N+](=O)[O-])c2)n1 [ONC0001007, opicapone]",81.76
15,"CCN(CC)CCNC(=O)c1ccccc1I [ONC0003631, n2diethylaminoethyl2iodobenzamide hydrochloride]",51.76
16,"CC(C)=CCC/C(C)=C/CC/C(C)=C/CSc1ccccc1C(N)=O [ONC0003299, farnesylthiosalicylicacidamide]",80.95
17,"CCCCC(=O)N(Cc1ccc(-c2ccccc2-c2nnn[nH]2)cc1)[C@H](C(=O)O)C(C)C [ONC0004292, valsartan]",83.45
18,"COC(=O)[C@@H](N)CCCNC(=N)N[N+](=O)[O-] [ONC0003037, lname]",84.29
19,"CCN(CC)CCNC(=O)c1cc(Br)c(N)cc1OC [ONC0002898, bromopride]",60.58
20,"CCc1ccc(/C=C2/SC(=S)NC2=O)cc1 [ONC0004460, 10058f4]",118.8
21,"CCOC(N)=O [ONC0003133, urethane]",74.39

row,Structure (SMILES),% viability [%]
1,"Nc1ncccc1-c1nc2ccc(-c3ccccc3)nc2n1-c1ccc(C2(N)CCC2)cc1 [ONC0001390, miransertib]",101.4
2,"O=C(O)C1CN(CCCP(=O)(O)O)CCN1 (centres unmarked) [ONC0001562, cpp]",88.98
3,"O=C1Nc2ccccc2C2(CCN(CCc3ccc(C(F)(F)F)cc3)CC2)O1 [ONC0000109, rs102895]",92.35
4,"O=c1cc(N2CCOCC2)oc2c(-c3ccccc3)cccc12 [ONC0002636, ly294002]",84.16
5,"Cc1cc(C)c(NC(=O)N(Cc2ccc3c(c2)Cc2ccccc2-3)C2CCCCCC2)c(C)c1 [ONC0000194, ym750]",45.17
6,"O=C1c2cccc(O)c2C(=O)c2c(O)cccc21 [ONC0003324, danthron]",56.8
7,"O=c1[nH]c(CCl)nc2sc3c(c12)CCCC3 [ONC0003871, 2chloromethyl5678tetrahydro1benzothieno23dpyrimidin43hone]",86.89
8,"CC(C)NNC(=O)c1ccncc1 [ONC0003822, iproniazid phosphate]",71.6
9,"CNCC(=O)O [ONC0003726, sarcosine]",140.3
10,"O=C1S/C(=C\c2ccc(OCc3cccc(B(O)O)c3)cc2)C(=O)N1Cc1ccc(F)cc1 [ONC0002550, ha130]",76.52
11,"Cc1ccc(Sc2cncc3sc(C(N)=O)cc23)cc1 [ONC0003151, a205804]",78.92
12,"Cc1c(C(=O)Nc2ccc(N3C[C@@H](C)O[C@@H](C)C3)nc2)cccc1-c1ccc(OC(F)(F)F)cc1 [ONC0004913, lde225 nvplde225 erismodegib]",90.24
13,"Nc1cc(C(F)(F)F)c(-c2cc(N3CCOCC3)nc(N3CCOCC3)n2)cn1 [ONC0004946, bkm120 nvpbkm120]",113
14,"CC(=O)N=c1sc(S(N)(=O)=O)nn1C [ONC0003108, methazolamide]",67.22
15,"CCCCCN(CCCOC)C(=O)[C@@H](CCC(=O)O)NC(=O)c1ccc(Cl)c(Cl)c1 [ONC0003408, dexloxiglumide]",69.48
16,"Cc1cnc(NC(=O)Nc2cc(Br)c(C)cc2OC[C@@H]2CNCCO2)cn1 [ONC0005090, ly2603618 ic83]",66.5
17,"O=C(O)c1cc(=O)c2ccccc2[nH]1 [ONC0000035, kynurenicacid]",107.8
18,"N[C@H](C(=O)O)c1ccc(C(=O)O)c(O)c1 [ONC0000126, 4carboxy3hydroxyphenylglycines]",82.71
19,"C=C1/C(=C\C=C2/CCC[C@]3(C)[C@@H]([C@H](C)CC[C@@H](O)C(C)C)CC[C@@H]23)C[C@@H](O)C[C@@H]1O [ONC0003445, tacalcitol]",80.23
20,"CCC(CO)(C(=O)OC1CC2CCC(C1)[N+]2(C)C)c1ccccc1 (centres unmarked) [ONC0002616, 32hydroxymethyl2phenylbutanoyloxy88dimethyl8azoniabicyclo321octane iodide]",59.82
